The values that follow come from PMC5426754.

Protein sequences, listed by entry. Tags and fused reporters are not part of them.
UniProt P29034: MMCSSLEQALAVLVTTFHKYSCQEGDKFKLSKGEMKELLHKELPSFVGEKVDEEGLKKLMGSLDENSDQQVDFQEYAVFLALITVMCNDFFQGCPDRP

No constants are given. Whether binding was seen depends on the method and setting. Some binding calls cover weakened binding; strength is not graded here.

The target of this test is Ezrin N-ERMAD (N-terminal ERM domain, FERM domain, Met1-Lys296) (human) (UniProt P15311). The experiment in a line: other fluorescence titration; steady-state tryptophan fluorescence; 2 μM ezrin construct titrated with S100 protein; 20 mM HEPES pH 7.5, 150 mM NaCl, 0.5 mM TCEP, 1 mM CaCl2; 25°C; quadratic binding equation; both purified.

For the substance S100A2 (from UniProt P29034 1-98), the binding result is reported as “binds weakly”.
